Data reported in paper PMC6238420.
Results are given in words; binding and its absence hold for the method and conditions named. Binding seen in cells or lysates may run through a third protein. Some entries that bind do so weakly or less than the wild type.

Amino acid sequences for entries named in this document (tags omitted).
UniProt O08586: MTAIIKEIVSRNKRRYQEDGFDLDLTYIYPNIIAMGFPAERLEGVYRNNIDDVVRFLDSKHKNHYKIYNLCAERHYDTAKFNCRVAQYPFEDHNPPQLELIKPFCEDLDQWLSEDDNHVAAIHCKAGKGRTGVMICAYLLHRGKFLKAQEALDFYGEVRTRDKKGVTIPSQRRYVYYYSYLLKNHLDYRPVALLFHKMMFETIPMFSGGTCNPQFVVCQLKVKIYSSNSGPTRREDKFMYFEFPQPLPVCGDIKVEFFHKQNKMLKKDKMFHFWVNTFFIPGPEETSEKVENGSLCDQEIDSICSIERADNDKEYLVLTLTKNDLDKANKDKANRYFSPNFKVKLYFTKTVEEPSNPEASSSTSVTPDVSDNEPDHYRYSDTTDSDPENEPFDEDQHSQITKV
UniProt O35445: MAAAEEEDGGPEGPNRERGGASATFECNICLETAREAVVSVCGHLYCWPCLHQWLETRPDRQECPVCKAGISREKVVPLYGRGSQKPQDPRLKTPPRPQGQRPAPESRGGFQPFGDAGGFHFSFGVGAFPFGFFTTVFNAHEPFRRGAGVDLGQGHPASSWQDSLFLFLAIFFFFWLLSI

Biological target: PTEN, endogenous in Smo^KO mouse pancreatic fibroblasts (mouse (endogenous in Smo^KO pancreatic fibroblasts)) (UniProt O08586)
Assay: co-IP; Smo^KO fibroblasts lysed in non-denaturing extraction buffer; immunoprecipitation with PTEN antibody (IgG as control), PRO-A magnetic beads; Western blot with RNF5 antibody

- binding: binds
Substance: RNF5, endogenous in Smo^KO mouse pancreatic fibroblasts (from UniProt O35445 1-180)
